According to PMC11327461, “Exogenous serpin B1 restricts immune complex-mediated NET formation via inhibition of a chymotrypsin-like protease and enhances microbial phagocytosis” (The Journal of Biological Chemistry, 2024):
These are yes or no findings as the source states them, for the method shown. Some binding calls cover weakened binding; strength is not graded here.

Protein sequences, listed by entry. Tags and fused reporters are not part of them. Residues count along the entry.
UniProt P08246, residues 30-267: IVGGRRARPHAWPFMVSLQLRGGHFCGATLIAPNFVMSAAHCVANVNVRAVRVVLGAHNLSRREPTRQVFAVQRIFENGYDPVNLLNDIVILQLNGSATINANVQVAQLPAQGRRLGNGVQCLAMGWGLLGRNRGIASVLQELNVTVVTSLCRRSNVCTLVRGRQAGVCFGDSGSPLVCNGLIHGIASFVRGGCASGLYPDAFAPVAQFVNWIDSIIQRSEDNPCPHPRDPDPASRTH

Biological target: neutrophil elastase (human) (UniProt P08246)
Assay: formation of SDS- and heat-stable serpin-protease complexes, SDS-PAGE; 2 uL of hNE, hPR3 or hCG (23.4 uM each) mixed with each sB1 protein at 1:1 molar ratio in 20 uL PBS, pH 7.4, 15 min; stopped with protease inhibitor mix; reducing sample buffer, heated, SDS-PAGE; both purified

binding: binds
B1: recombinant human serpin B1, wild type (C344) (protein, UniProt P30740 1-379)
chain: MEQLSSANTRFALDLFLALSENNPAGNIFISPFSISSAMAMVFLGTRGNTAAQLSKTFHFNTVEEVHSRFQSLNADINKRGASYILKLANRLYGEKTYNFLPEFLVSTQKTYGADLASVDFQHASEDARKTINQWVKGQTEGKIPELLASGMVDNMTKLVLVNAIYFKGNWKDKFMKEATTNAPFRLNKKDRKTVKMMYQKKKFAYGYIEDLKCRVLELPYQGEELSMVILLPDDIEDESTGLKKIEEQLTLEKLHEWTKPENLDFIEVNVSLPRFKLEESYTLNSDLARLGVQDLFNSSKADLSGMSGARDIFISKIVHKSFVEVNEEGTEAAAATAGIATFCMLMPEENFTADHPFLFFIRHNSSGSILFLGRFSSP
